Laboratory results published in patent US20190062727A1 (University of Texas, published 2019).
No constants are given. Whether binding was seen depends on the method and setting. In cells and extracts the contact can be indirect. Some results given as binding are weak or reduced against the parent protein; the word gives no strength.

Protein sequences, listed by entry. Tags and fused reporters are not part of them.
UniProt P38532: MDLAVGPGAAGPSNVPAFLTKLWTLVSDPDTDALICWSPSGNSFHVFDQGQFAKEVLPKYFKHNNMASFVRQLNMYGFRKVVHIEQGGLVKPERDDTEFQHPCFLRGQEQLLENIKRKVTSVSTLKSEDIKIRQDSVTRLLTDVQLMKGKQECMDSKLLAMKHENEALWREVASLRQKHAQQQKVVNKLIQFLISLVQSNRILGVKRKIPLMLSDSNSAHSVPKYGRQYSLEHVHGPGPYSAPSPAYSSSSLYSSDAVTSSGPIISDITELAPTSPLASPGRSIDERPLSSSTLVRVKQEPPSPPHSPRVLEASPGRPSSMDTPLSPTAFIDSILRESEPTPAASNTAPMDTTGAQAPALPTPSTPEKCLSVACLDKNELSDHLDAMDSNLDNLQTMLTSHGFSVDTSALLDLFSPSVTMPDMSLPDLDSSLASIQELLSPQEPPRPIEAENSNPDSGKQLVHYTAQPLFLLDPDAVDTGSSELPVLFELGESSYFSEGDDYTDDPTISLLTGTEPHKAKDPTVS

How the values were obtained:
[1] = molecular target: p53 (TP53), endogenous protein of mouse embryonic fibroblasts and mouse liver (mouse) (UniProt P02340); experiment: proximity ligation assay in mouse liver sections
[2] = molecular target: HSF1 (heat shock factor 1), endogenous protein of mouse embryonic fibroblasts and mouse liver (mouse) (UniProt P38532); experiment: co-immunoprecipitation from whole-cell homogenates of wt, p53+/- and p53-/- MEFs
[3] = molecular target: HSF1 (heat shock factor 1), endogenous protein of mouse embryonic fibroblasts and mouse liver (mouse) (UniProt P38532); experiment: proximity ligation assay in liver sections

Molecule: HSF1 (heat shock factor 1), endogenous protein of mouse embryonic fibroblasts and mouse liver (from UniProt P38532 1-525)
- binding [1]: binds

B1: Rlip (RALBP1, RLIP76), endogenous protein of mouse embryonic fibroblasts and mouse liver (protein, UniProt Q62172 2-648, looked up)
chain: TECFLPPSSSPSEHRRAEHGSGLTRTPSSEEISPTKFPGLYRTGEPSPPHDVLHEPPDTVSDDDKDHGKKKGKFKKKEKRTEGYAAFQEDSSGDEAESPSKVKRSKGIHVFKKPSFSKKKEKDFKIKEKPKEEKHKEEKHKEEKHKEKKSKDLTAADVVKQWKEKKKKKKPIQEPEVPQMDAPSVKPIFGVPLVDAVERTMMYDGVRLPAVFRECVDYMEKHGMKCEGVYRVSGIKSKVDELKAAYDREESPNLEEYEPNTVASLLKQYLRDLPENLLTKELMPRFEEACGKTTEMEKVQEFQRLLRELPECNHLLLSWLIVHLDHVIAKELETKMNIQNISIVLSPTVQISNRVLYVLFTHVQELFGTVVLKQVTRPLRWSNMATMPTLPETQAGIKEEIRRQEFLLNCLHRDLQGGIKDLSKEERLWEVQRILTALKRKLREAKRQECETKIAQEIASLSKEDVSKEEMNENEEVINILLAQENEILTEQEELLAMEQFLRRQIASEKEEIDRLRAEIAEIQSRQQHGRSETEEYSSDSESESEDEEELQLILEDLQRQNEELEIKNNHLNQAVHEEREAIIELRVQLRLLQMQRAKSEQQPQEEEEPERRGGIGPPPCDGVLEVRVAKEQAKASPSKDRKETPI
- binding [2]: binds

B2: p53 (TP53), endogenous protein of mouse embryonic fibroblasts and mouse liver (other, UniProt P02340 1-390, looked up)
chain: MTAMEESQSDISLELPLSQETFSGLWKLLPPEDILPSPHCMDDLLLPQDVEEFFEGPSEALRVSGAPAAQDPVTETPGPVAPAPATPWPLSSFVPSQKTYQGNYGFHLGFLQSGTAKSVMCTYSPPLNKLFCQLAKTCPVQLWVSATPPAGSRVRAMAIYKKSQHMTEVVRRCPHHERCSDGDGLAPPQHLIRVEGNLYPEYLEDRQTFRHSVVVPYEPPEAGSEYTTIHYKYMCNSSCMGGMNRRPILTIITLEDSSGNLLGRDSFEVRVCACPGRDRRTEEENFRKKEVLCPELPPGSAKRALPTCTSASPPQKKKPLDGEYFTLKIRGRKRFEMFRELNEALELKDAHATEESGDSRAHSSYLKTKKGQSTSRHKKTMVKKVGPDSD
notes: Endogenous protein, detected with a mouse monoclonal anti-p53 antibody from Cell Signaling Technology
- binding [3]: binds
